Hit rate of the full screen: of about 220,000 compounds, about 2,400 (1.1%) were called active. Inconclusive results, whose numbers are uncertain, are shown with a selection of clear calls. The call rests on the fitted dose curve; in most records, active means well fitted inhibition curve with a large enough effect; inconclusive means small, poorly fitted or top-dose-only effect, or effect the other way; inactive means no such curve, though single readings can be large or run the other way. Where the call is inconclusive, the potency comes from a doubtful curve fit.
Assay: qHTS Multiplex Assay to Identify Dual Action Probes in a Cell Model of Huntington: Aggregate Formation (GFP); further: nearly all actives have a fitted effect of over 60% in size
Conditions: PC12 HttQ103-GFP aggregates, Acumen cytometry, 40 h; activity change, negative = inhibition: at 46.1 µM (top of the series) unless noted
Summary of the method: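 Read-out: GFP aggregate count by laser scanning cytometer (488 nm excitation, 500-530 nm emission, 1–25 µm objects >6 SD above background). Cells: PC12, inducible HTTex1-Q103-GFP, 100 nM tebufenozide; compounds titrated.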
On the % scale 0 is the no-effect control and ±100 the full control effect; potency means the concentration at half of the fitted maximal effect.

| Compound | Potency | activity change, negative = inhibition |
| --- | --- | --- |
| CC(C)(C)NC(=O)COC(=O)c1cncc(Br)c1 | inactive | – |
| CC1CCCC(NC(=O)COC(=O)c2ccc(N(C)C)cc2)C1C (centres undefined) | inconclusive: 7.08 µM [activator, partial curve] | – |
| CC(=O)NC1=NN(C(C)=O)C(C)(c2cccnc2)S1 (centres undefined) | inconclusive: 2.24 µM [activator, single point] | – |
| Cc1cc([N+](=O)[O-])nn1Cc1ccc(C(=O)N/N=C/c2ccc(O)cc2O)cc1 | inconclusive: 3.16 µM [inhibitor, full curve] | – |
| Cc1cc2ncn(CC(O)COC3CCCCC3)c2cc1C (centres undefined) | inconclusive: 3.55 µM [inhibitor, single point] | – |
| O=C(NCC(=O)N1CCN(S(=O)(=O)/C=C/c2ccccc2)CC1)c1ccccc1F | inconclusive: 6.31 µM [activator, partial curve, poor fit] | – |
| CCCCCCc1cc2cc(S(=O)(=O)c3ccc(F)cc3)c(=O)oc2cc1O | inconclusive: 28.2 µM [inhibitor, single point] | – |
| CCN(CC)Cc1c[nH]c2c(C(=O)OC)cccc12 | inconclusive: 35.5 µM [inhibitor, single point] | – |
| Cc1ccc(S(=O)(=O)c2c(N)n(Cc3ccco3)c3nc4ccccc4nc23)cc1C | active: 12.6 µM | – |
| FC(F)(F)c1cnc(Oc2ccccc2-c2nnco2)c(Cl)c1 | inactive | – |
| CCCCC(=O)OCC(=O)[C@]1(O)Cc2c(O)c3c(c(O)c2[C@H](OC2CC(NC(=O)C(F)(F)F)C(O)C(C)O2)C1)C(=O)c1c(OC)cccc1C3=O (some centres undefined) | inconclusive: 7.94 µM [inhibitor, full curve, poor fit] | – |
| COc1ccc(CNC(=O)COc2ccc(C)nc2[N+](=O)[O-])cc1 | inconclusive: 0.501 µM [activator, full curve, poor fit] | – |
| COC(=O)[C@@H]1C[C@@H]2CC[C@@H](O)C[C@@H]2N1Cc1ccccc1OS(=O)(=O)c1ccc(C)cc1 | – | inconclusive: 28.1% [activator] [at 9.22 µM] |
| COc1cccc(C(=O)N(Cc2ccccc2)Cc2cc3cc4c(cc3[nH]c2=O)OCCO4)c1 | inconclusive: 17.8 µM [inhibitor, single point] | – |
| O=C(C[n+]1cccc(CNC(=O)c2ccc(OC(F)F)cc2)c1)Nc1cccc(C(F)(F)F)c1 | inconclusive: 22.4 µM [inhibitor, single point] | – |
| CCn1c(SCC(=O)Nc2ccc(C(C)=O)cc2)nc2ccccc21 | inconclusive: 0.355 µM [inhibitor, partial curve] | – |
| N#Cc1cc(C(=O)c2cc(Cl)ccc2O)cn(-c2ccccc2)c1=O | inactive | – |
| Cc1ccc(-c2c(C#N)c(N)nc3c2CCCCCC3)o1 | inconclusive: 0.0891 µM [inhibitor, full curve] | – |
| CCOC(=O)N1CCN(C(=O)CSCC(=O)Nc2nc(-c3ccc(Cl)s3)cs2)CC1 | inconclusive: 14.1 µM [inhibitor, partial curve] | – |
| Cc1cc2c3c(ccc(C)c3n1)N=CN2c1ccccc1 | inconclusive: 12.6 µM [inhibitor, partial curve] | – |
| O=S(=O)(c1ccc(F)cc1)c1snnc1-c1ccccc1 | inconclusive: 12.6 µM [inhibitor, single point] | – |
| CCc1c(C)nc2ncnn2c1NCCc1ccccc1 | active: 10 µM | – |
| COc1ccc(/C=C/C(=O)O)cc1 | inactive | – |

Structural class: those above with a CF3 group

| Compound | Potency | activity change, negative = inhibition |
| --- | --- | --- |
| FC(F)(F)c1cnc(Oc2ccccc2-c2nnco2)c(Cl)c1 | inactive | – |
| CCCCC(=O)OCC(=O)[C@]1(O)Cc2c(O)c3c(c(O)c2[C@H](OC2CC(NC(=O)C(F)(F)F)C(O)C(C)O2)C1)C(=O)c1c(OC)cccc1C3=O (some centres undefined) | inconclusive: 7.94 µM [inhibitor, full curve, poor fit] | – |
| O=C(C[n+]1cccc(CNC(=O)c2ccc(OC(F)F)cc2)c1)Nc1cccc(C(F)(F)F)c1 | inconclusive: 22.4 µM [inhibitor, single point] | – |

The results go on:

| Compound | Potency | activity change, negative = inhibition |
| --- | --- | --- |
| CCCN1C(=O)SC(CC(=O)Nc2cccc3ccccc23)C1=O (centres undefined) | inconclusive: 35.5 µM [activator, single point] | – |
| Cc1ccc(C(=O)N/C(=C\c2ccc(-c3ccc(Cl)cc3)o2)C(=O)NCCCN(C)C)cc1 | inconclusive: 35.5 µM [inhibitor, single point] | – |
| Cc1ccc2[nH]c(=O)c(CN(Cc3cccs3)S(=O)(=O)c3ccc4c(c3)OCCO4)cc2c1 | inactive | – |
| Cc1cc(C(=O)CN2C(=O)NC(c3ccccc3)(c3ccccc3)C2=O)c(C)n1Cc1ccco1 | inconclusive: 35.5 µM [inhibitor, single point] | – |
| CC1CCCCN1S(=O)(=O)c1cnc(Cl)c(Br)c1 (centres undefined) | inconclusive: 4.47 µM [activator, full curve] | – |
| Cc1occc1C(=O)NCc1cccs1 | inactive | – |
| NC(=O)CC(NC(=O)Cc1cccc2ccccc12)c1ccc(NCc2ccc(F)cc2)c([N+](=O)[O-])c1 (centres undefined) | inconclusive: 1.26 µM [activator, partial curve] | – |
| CCOC(=O)c1ccc(NC(=S)N2CCSC2c2ccc(Cl)cc2)cc1 (centres undefined) | inactive | – |
| COC(=O)[C@@H]1[C@@H](C#N)C2(c3ccccc3-c3ccccc32)N(c2ccc(Cl)cc2)N1C#N | inconclusive: 1.41 µM [activator, full curve, poor fit] | – |
| COc1ccc(NC(=O)CSc2ccccn2)cc1 | inactive | – |
| COc1ccc(N/N=C(/Oc2ccc([N+](=O)[O-])cc2)C(C)=O)cc1 | inconclusive: 35.5 µM [inhibitor, single point] | – |
| CC/C(=C\C(=O)c1ccncc1)Nc1ccc(O)cc1 | inconclusive: 35.5 µM [inhibitor, partial curve] | – |
| C/C(=N\NC(=O)c1ccc(CN2CCc3ccccc3C2)cc1)c1ccccc1O | active: 10 µM | – |
| CCN(CC)C(=O)C(=O)c1cccn1-c1cccc(-n2cccc2C(=O)C(=O)N(CC)CC)c1C#N | inactive | – |
| CCn1c(SCC(=O)NCC2CCCO2)nc2cc(S(=O)(=O)N3CCCCC3)ccc21 (centres undefined) | inconclusive: 0.794 µM [inhibitor, full curve, poor fit] | – |
| CCN(CC)Cc1ccc(NC(=O)c2sc3cc(Cl)ccc3c2Cl)cc1 | – | inactive: -8.23% [at 9.22 µM] |
| CCN(CC)C(=O)C1CCN(Cc2cccc(OCc3ccccc3)c2)CC1 | inactive | – |
| Cn1c(=O)c2ncn(CC(=O)NCCC3=CCCCC3)c2n(C)c1=O | inactive | – |
| c1coc(CNc2nc3nonc3nc2NCc2ccco2)c1 | active: 11.2 µM | – |
| C=CC[n+]1c(/C=C2\C=Cc3cc(C)ccc3N2CC)ccc2ccccc21 | active: 3.16 µM | – |
| Cc1ccc2[nH]c(=O)c(CN(Cc3nnnn3Cc3ccccc3)C3CCCC3)cc2c1 | active: 0.891 µM | – |
| CC1CCc2c(sc3nn[nH]c(=O)c23)C1 (centres undefined) | inconclusive: 7.94 µM [inhibitor, partial curve] | – |
| COc1cccc(/C=N/NC(=O)c2ccoc2C)c1O | inconclusive: 5.62 µM [inhibitor, single point] | – |

| Compound | Potency | activity change, negative = inhibition |
| --- | --- | --- |
| O=C(NNC(=O)c1cccnc1SCc1cccc([N+](=O)[O-])c1)c1ccccn1 | inconclusive: 10 µM [inhibitor, partial curve, poor fit] | – |
| O=S(=O)(c1ccc2c(c1)OCCO2)N1CCC(n2nnc3cc(C(F)(F)F)ccc32)CC1 | active: 10 µM | – |
| Cn1c2c(c(=O)n(C)c1=O)C(C(F)(F)F)(C(F)(F)F)N=C(C1CCCCC1)N2 | inconclusive: 3.55 µM [inhibitor, partial curve] | – |
| COc1ccc2[nH]c(=S)cc(C)c2c1 | – | inactive: 19.9% [at 9.22 µM] |
| CCOC(=O)c1[nH]c2ccc(OCC)cc2c1CCCN1C(=O)c2ccccc2C1=O | inactive | – |
| CC1(C)CC(=O)C2=C(C1)OC(N)=C(C#N)C2c1ccc(OC(=O)N2CCOCC2)cc1 (centres undefined) | – | inactive: -0.672% [at 9.22 µM] |
| Cc1ccc(OCCn2cnc3cc([N+](=O)[O-])ccc3c2=O)cc1 | inconclusive: 3.55 µM [activator, partial curve, poor fit] | – |
| C=CCn1c(=O)/c(=C2/Sc3cc(OC)ccc3N2C)s/c1=C1\C(=O)N(CC)C(=S)N1C | – | inactive: 4.23% [at 9.22 µM] |
| Cc1ccnc(NS(=O)(=O)c2ccc(Oc3ccccc3)cc2)c1 | inconclusive: 7.08 µM [inhibitor, partial curve] | – |
| CC1Cc2ccccc2N1C(=O)CN1C(=O)NC(C)(c2ccc3c(c2)OCCO3)C1=O (centres undefined) | inconclusive: 28.2 µM [inhibitor, single point] | – |
| CCOC(=O)C(C)(C)N(Cc1cccc(C)c1)S(=O)(=O)c1cccc([N+](=O)[O-])c1 | inactive | – |
| O=C1c2c(O)ccc(O)c2C(=O)c2c(NCCNCCO)ccc(NCCNCCO)c21 | active: 10 µM | – |
| Cc1cc(N2CCN(S(=O)(=O)c3ccccc3)CC2)c2ccccc2n1 | inconclusive: 35.5 µM [inhibitor, single point] | – |
| COc1ccc(Cn2c(-c3ccc(C)cc3)c[n+]3ccccc23)cc1 | active: 8.91 µM | – |
| Cc1ccc(O)c(NC(=O)COc2cc(C)ccc2C)c1 | inconclusive: 0.0501 µM [inhibitor, full curve, poor fit] | – |
| Nc1ccccc1NC(=O)c1ccccc1N | inconclusive: 35.5 µM [inhibitor, single point] | – |
| O=C(/C=C/c1ccccc1Cl)NCc1cccs1 | inactive | – |
| CCOC(=O)c1sc(NC(=O)c2ccc(S(=O)(=O)N3CCCCCC3)cc2)nc1-c1ccccc1 | inconclusive: 0.0063 µM [inhibitor, full curve, poor fit] | – |
| CC(C)(C)NC(=S)NNC(=O)c1cccc(Br)c1 | active: 11.2 µM | – |
| Cc1ccc(NC(=O)c2cc(N3C(=O)C4CC=CCC4C3=O)ccc2N2CCOCC2)cc1Cl (centres undefined) | inconclusive: 22.4 µM [activator, single point] | – |
| Cc1ccc(C(=O)CC(=O)c2cc(Cl)ccc2O)cc1 | inconclusive: 1 µM [inhibitor, partial curve, poor fit] | – |
| Nc1cc(=O)[nH]c(=S)n1-c1ccccc1 | inactive | – |
| O=[N+]([O-])c1cc2c(c(CSc3ncccn3)c1)OCOC2 | inconclusive: 35.5 µM [activator, single point] | – |

Reference: PubChem BioAssay AID1688 (National Center for Advancing Translational Sciences (NCATS), 2009)
